PubChem BioAssay AID652259 – Drosophila RNAi Screening Center – 2013
The deposit covers about 22,000 reagents; below is a random part of those with a known target gene and a result. In the full data, 233 (1.1%) are marked active. 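Light values are raw, unnormalised plate reads; the ratio scores behind the reporter calls were not deposited.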 Reagents against one gene are numbered here. A plus sign joins genes that one reagent is predicted to hit. Not stated in the record: the amount of reagent, the time to read-out, the dose of the treatment.

Assay: 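Genome-wide hunt for genes that control Wingless pathway activity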 (primary screen)
Cell system: Drosophila clone 8 imaginal disc epithelial cells
Reagent: long dsRNA against Drosophila genes
Treatment: pathway stimulated by co-transfected Wingless expression plasmid
Measured: 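Firefly luciferase from a tcf-site Wingless reporter, measured alongside co-transfected Renilla luciferase that tracks transfection; pathway stimulated by a Wingless plasmid; the firefly-to-Renilla ratio is not deposited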
Direction: firefly reporter light: higher = more Wg reporter light, before normalisation; Renilla control light: higher = more transfected or surviving cells
Hit rule: 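Strong candidates differ from their plate mean by at least two out of four per-plate statistical tests; weak candidates meet just one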
Calls: active = candidate regulator (raises or lowers reporter); inactive = not a candidate

The first 9 entries, ahead of the listing:
| gene knocked down | reagent | firefly reporter light, replicate 1 | firefly reporter light, replicate 2 | Renilla control light, replicate 1 | Renilla control light, replicate 2 | outcome |
| --- | --- | --- | --- | --- | --- | --- |
| CG3285 | 1 | 12792 | – | 5592 | – | inactive |
| lncRNA:CR32368 (long non-coding RNA:CR32368) | 1 | 4694 | – | 1882 | – | inactive |
| Spn100A (Serpin 100A) | 1 | 2496 | 6971 | 1015 | 2691 | inactive |
| CG3823 | 1 | 32301 | – | 13857 | – | inactive |
| CG1161 | 1 | 14861 | – | 1856 | – | inactive |
| Fkbp14 (FK506-binding protein 14) | 1 | 18100 | – | 4981 | – | inactive |
| CG33109 | 1 | 15755 | – | 3340 | – | inactive |
| Dus4 (Dihydrouridine synthase 4) | 1 | 10147 | – | 2538 | – | inactive |
| CG7448 (retired record) | 1 | 7996 | – | 3480 | – | inactive |

The list itself, from the start:
| gene knocked down | reagent | firefly reporter light, replicate 1 | firefly reporter light, replicate 2 | Renilla control light, replicate 1 | Renilla control light, replicate 2 | outcome |
| --- | --- | --- | --- | --- | --- | --- |
| CG3285 | 1 | 12792 | – | 5592 | – | inactive |
| lncRNA:CR32368 (long non-coding RNA:CR32368) | 1 | 4694 | – | 1882 | – | inactive |
| Spn100A (Serpin 100A) | 1 | 2496 | 6971 | 1015 | 2691 | inactive |
| CG3823 | 1 | 32301 | – | 13857 | – | inactive |
| CG1161 | 1 | 14861 | – | 1856 | – | inactive |
| Fkbp14 (FK506-binding protein 14) | 1 | 18100 | – | 4981 | – | inactive |
| CG33109 | 1 | 15755 | – | 3340 | – | inactive |
| Dus4 (Dihydrouridine synthase 4) | 1 | 10147 | – | 2538 | – | inactive |
| CG7448 (retired record) | 1 | 7996 | – | 3480 | – | inactive |
| CG7448 (retired record) | 2 | 5.40e5 | 5.88e5 | 2.58e5 | 2.75e5 | inactive |
| Acp53Ea (Accessory gland protein 53Ea) | 1 | 5251 | – | 2152 | – | inactive |
| CG6209 | 1 | 9344 | – | 3233 | – | inactive |
| jar (jaguar) | 1 | 12541 | – | 13867 | – | inactive |
| CG15651 | 1 | 1927 | 5040 | 629 | 1852 | inactive |
| ed (echinoid) | 1 | 10160 | – | 4320 | – | inactive |
| ed (echinoid) | 2 | 2993 | 7351 | 1440 | 2790 | inactive |
| ed (echinoid) | 3 | 3798 | 10224 | 1444 | 3285 | inactive |
| ed (echinoid) | 4 | 3061 | 9233 | 1312 | 3140 | inactive |
| CG42819 | 1 | 3000 | 9909 | 1131 | 3307 | inactive |
| Mitofilin | 1 | 2749 | 3808 | 790 | 1072 | inactive |
| ms(2)35Ci (male sterile (2) 35Ci) | 1 | 26617 | – | 14649 | – | inactive |
| Cyp301a1 (Cytochrome P450 301a1) | 1 | 6937 | – | 2812 | – | inactive |
| CG5790 | 1 | 12073 | – | 3942 | – | inactive |
| sphinx2 | 1 | 7.22e5 | 7.16e5 | 3.14e5 | 3.12e5 | inactive |
| GstE2 (Glutathione S transferase E2) | 1 | 6833 | – | 2528 | – | inactive |
| CG32986 | 1 | 4268 | 6327 | 1382 | 2886 | inactive |
| CG30286 | 1 | 2776 | 6506 | 1227 | 2304 | inactive |
| CG10862 | 1 | 5088 | – | 2279 | – | inactive |
| lsn (larsen) | 1 | 30621 | – | 6144 | – | inactive |
| Ptp99A (Protein tyrosine phosphatase 99A) | 1 | 5680 | – | 2054 | – | inactive |
| Ptp99A (Protein tyrosine phosphatase 99A) | 2 | 4592 | – | 2197 | – | inactive |
| Ptp99A (Protein tyrosine phosphatase 99A) | 3 | 5802 | – | 2560 | – | inactive |
| Ptp99A (Protein tyrosine phosphatase 99A) | 4 | 13004 | – | 3165 | – | inactive |
| Ptp99A (Protein tyrosine phosphatase 99A) | 5 | 6742 | – | 2572 | – | inactive |
| Ptp99A (Protein tyrosine phosphatase 99A) | 6 | 8.16e5 | 7.85e5 | 3.67e5 | 3.83e5 | inactive |
| Ptp99A (Protein tyrosine phosphatase 99A) | 7 | 4.64e5 | 4.28e5 | 1.79e5 | 1.52e5 | inactive |
| CG13067 | 1 | 9617 | – | 3830 | – | inactive |
| Pka-R1 (Protein kinase, cAMP-dependent, regulatory subunit type 1) | 1 | 3987 | – | 1104 | – | inactive |
| Pka-R1 (Protein kinase, cAMP-dependent, regulatory subunit type 1) | 2 | 5613 | – | 1979 | – | inactive |
| Cyp6a23 (Cytochrome P450 6a23) | 1 | 7996 | – | 3409 | – | inactive |
| CG15024 | 1 | 1847 | 12498 | 1376 | 4068 | inactive |
| verm (vermiform) | 1 | 5417 | – | 2589 | – | inactive |
| Fkbp12 (FK506-binding protein 12kD) | 1 | 7036 | – | 2161 | – | inactive |
| CG6833 | 1 | 6091 | – | 1562 | – | inactive |
| pim (pimples) | 1 | 5476 | – | 1024 | – | inactive |
| CG30095 | 1 | 5859 | – | 2417 | – | inactive |
| CG5909 | 1 | 5561 | – | 2397 | – | inactive |
| CG34051 | 1 | 19747 | – | 20764 | – | inactive |
| Trp1 (Translocation protein 1) | 1 | 5093 | 7053 | 976 | 3188 | inactive |
| CG2906 | 1 | 1623 | 6528 | 672 | 2065 | inactive |
| CG13502 | 1 | 2436 | 7657 | 571 | 2500 | inactive |
| mms4 (Methyl methanesulfonate sensitivity 4) | 1 | 2069 | 6448 | 661 | 3242 | inactive |
| CG7872 | 1 | 2993 | 8019 | 996 | 2465 | inactive |
| CAHbeta (Carbonic anhydrase beta) | 1 | 3656 | – | 2090 | – | inactive |
| Fuca (alpha-L-fucosidase) | 1 | 6348 | – | 2280 | – | inactive |
| g (garnet) | 1 | 24347 | – | 12352 | – | inactive |
| CG11666 | 1 | 5.64e5 | 7.36e5 | 1.97e5 | 2.71e5 | inactive |
| mtgo (miles to go) | 1 | 5955 | 7429 | 1784 | 4788 | inactive |
| mtgo (miles to go) | 2 | 3377 | – | 2017 | – | inactive |
| mtgo (miles to go) | 3 | 5372 | – | 1465 | – | inactive |
| mtgo (miles to go) | 4 | 3.17e5 | 3.39e5 | 1.60e5 | 1.77e5 | inactive |
| mtgo (miles to go) | 5 | 2.66e5 | 4.07e5 | 2.09e5 | 1.98e5 | inactive |
| CG14418 | 1 | 20003 | – | 9366 | – | inactive |
| CG30350 | 1 | 4332 | 8316 | 800 | 2763 | inactive |
| CG10804 | 1 | 4144 | 8554 | 1312 | 3221 | inactive |
| Pepck1 (Phosphoenolpyruvate carboxykinase 1) | 1 | 8786 | – | 3355 | – | inactive |
| CG3224 | 1 | 26278 | – | 10949 | – | inactive |
| CG14851 | 1 | 18678 | – | 4701 | – | inactive |
| CG14851 | 2 | 6.35e5 | 6.93e5 | 2.75e5 | 2.30e5 | inactive |
| CG13045 | 1 | 8390 | – | 2290 | – | inactive |
| CG14551 | 1 | 15856 | – | 14512 | – | inactive |
| Hsp70Bb + Hsp70Bbb | 1 | 21687 | 8.53e5 | 5201 | 2.92e5 | inactive |
| parvin | 1 | 18801 | – | 9288 | – | inactive |
